Measurements as given in article PMC5155150.
Results are given in words; binding and its absence hold for the method and conditions named. In cells and extracts the contact can be indirect. Some results given as binding are weak or reduced against the parent protein; the word gives no strength.

Protein sequences, listed by entry. Tags and fused reporters are not part of them. Residues count along the entry.
UniProt P12830, residues 731-882: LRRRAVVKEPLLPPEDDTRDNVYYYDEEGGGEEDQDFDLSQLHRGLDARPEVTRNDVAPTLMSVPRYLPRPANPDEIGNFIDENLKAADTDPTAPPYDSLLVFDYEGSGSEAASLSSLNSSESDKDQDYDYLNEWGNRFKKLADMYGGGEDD
UniProt P35222: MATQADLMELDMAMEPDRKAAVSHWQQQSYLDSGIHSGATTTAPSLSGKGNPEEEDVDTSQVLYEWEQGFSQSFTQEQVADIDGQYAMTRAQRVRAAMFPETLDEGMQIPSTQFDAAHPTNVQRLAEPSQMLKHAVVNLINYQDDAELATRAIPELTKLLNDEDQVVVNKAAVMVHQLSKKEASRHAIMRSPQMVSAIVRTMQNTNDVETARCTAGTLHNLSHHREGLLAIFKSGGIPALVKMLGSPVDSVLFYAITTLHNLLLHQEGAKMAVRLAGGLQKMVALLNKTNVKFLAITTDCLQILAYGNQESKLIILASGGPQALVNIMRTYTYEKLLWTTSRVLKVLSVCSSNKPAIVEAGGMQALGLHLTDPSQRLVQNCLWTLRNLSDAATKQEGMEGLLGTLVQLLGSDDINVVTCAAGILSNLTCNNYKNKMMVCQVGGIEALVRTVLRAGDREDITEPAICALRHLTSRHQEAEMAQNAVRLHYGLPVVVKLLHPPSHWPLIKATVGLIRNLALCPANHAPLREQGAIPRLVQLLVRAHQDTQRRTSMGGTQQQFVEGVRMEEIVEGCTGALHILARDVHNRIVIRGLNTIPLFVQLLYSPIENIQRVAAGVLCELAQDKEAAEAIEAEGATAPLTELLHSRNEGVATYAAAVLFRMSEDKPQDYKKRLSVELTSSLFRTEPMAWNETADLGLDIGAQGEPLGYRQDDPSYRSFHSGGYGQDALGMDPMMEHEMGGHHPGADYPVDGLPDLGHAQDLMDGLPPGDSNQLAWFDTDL

Target: glutathione S-transferase-tagged cytosolic tail of E-cadherin (ECT) (UniProt P12830)
Assay: pull-down; bead array-based GST pull-down; GST fusion proteins as baits; native hPSC lysates (150 mM NaCl, 50 mM Tris pH 7.4, 1% Triton X-100) after 24 h of CHIR treatment at the four CHIR/volume conditions; only the target purified

## β-catenin (from UniProt P35222 1-781)
  binding: binds
